Some of the results follow.

Chains of the proteins cited; added tags and fusions are not shown. Lines headed by an entry give the natural chain unless they say otherwise; changes in a name come on top.
UniProt Q9H0R1: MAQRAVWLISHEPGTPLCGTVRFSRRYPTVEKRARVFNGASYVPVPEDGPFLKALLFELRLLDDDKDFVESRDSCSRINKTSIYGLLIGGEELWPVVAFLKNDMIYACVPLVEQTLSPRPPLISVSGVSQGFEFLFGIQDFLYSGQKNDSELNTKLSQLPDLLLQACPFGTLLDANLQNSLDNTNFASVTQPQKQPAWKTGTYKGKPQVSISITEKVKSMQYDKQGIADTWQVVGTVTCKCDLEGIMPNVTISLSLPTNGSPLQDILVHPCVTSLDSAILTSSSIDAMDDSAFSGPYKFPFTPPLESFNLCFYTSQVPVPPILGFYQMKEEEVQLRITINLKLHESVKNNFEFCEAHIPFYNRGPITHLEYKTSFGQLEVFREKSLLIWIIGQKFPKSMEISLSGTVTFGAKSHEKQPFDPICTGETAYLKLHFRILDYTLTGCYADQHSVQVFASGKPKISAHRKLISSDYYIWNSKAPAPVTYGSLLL
UniProt Q8N392: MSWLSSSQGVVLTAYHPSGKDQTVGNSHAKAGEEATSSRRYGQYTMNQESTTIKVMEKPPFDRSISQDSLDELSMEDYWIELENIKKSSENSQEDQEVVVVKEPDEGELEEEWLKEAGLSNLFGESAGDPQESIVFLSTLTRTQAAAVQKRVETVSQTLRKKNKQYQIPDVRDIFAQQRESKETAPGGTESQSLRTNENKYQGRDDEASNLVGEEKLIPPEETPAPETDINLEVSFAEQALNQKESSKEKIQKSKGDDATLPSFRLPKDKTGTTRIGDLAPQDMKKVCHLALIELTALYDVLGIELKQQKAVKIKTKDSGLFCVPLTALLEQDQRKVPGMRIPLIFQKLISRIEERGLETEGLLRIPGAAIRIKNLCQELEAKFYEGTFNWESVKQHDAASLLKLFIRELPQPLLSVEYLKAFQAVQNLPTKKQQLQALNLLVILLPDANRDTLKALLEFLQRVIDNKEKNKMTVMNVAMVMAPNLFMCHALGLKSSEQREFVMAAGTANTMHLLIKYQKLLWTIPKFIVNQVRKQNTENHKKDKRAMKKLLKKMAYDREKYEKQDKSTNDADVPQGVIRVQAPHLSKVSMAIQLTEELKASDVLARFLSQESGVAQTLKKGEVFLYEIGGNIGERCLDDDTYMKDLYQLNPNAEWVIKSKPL
UniProt P15289: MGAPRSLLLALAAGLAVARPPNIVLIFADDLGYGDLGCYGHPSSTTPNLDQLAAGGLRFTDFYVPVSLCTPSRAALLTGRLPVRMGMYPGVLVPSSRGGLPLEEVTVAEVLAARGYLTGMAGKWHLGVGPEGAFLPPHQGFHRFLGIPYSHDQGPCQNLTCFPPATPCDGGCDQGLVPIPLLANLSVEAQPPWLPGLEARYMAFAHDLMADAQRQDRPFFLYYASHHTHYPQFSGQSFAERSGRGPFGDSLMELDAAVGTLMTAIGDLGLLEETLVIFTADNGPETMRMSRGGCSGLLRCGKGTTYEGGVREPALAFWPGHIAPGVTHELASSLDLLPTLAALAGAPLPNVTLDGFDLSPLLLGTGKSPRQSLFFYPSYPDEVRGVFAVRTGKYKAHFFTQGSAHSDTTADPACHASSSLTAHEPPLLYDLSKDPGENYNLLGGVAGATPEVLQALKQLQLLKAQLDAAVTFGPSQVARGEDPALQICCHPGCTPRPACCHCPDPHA
UniProt Q66PJ3: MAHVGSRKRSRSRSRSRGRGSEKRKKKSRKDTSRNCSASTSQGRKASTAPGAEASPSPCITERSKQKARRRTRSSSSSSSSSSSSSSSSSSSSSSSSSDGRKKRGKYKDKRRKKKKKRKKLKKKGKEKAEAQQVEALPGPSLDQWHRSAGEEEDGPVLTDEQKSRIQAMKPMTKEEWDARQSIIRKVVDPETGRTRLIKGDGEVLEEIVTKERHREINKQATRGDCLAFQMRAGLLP
UniProt Q96BM9: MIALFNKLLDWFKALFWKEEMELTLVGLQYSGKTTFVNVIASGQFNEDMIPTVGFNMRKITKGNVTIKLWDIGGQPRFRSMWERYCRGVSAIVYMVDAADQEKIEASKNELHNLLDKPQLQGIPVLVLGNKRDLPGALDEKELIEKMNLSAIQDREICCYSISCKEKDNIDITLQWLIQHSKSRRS
UniProt Q6ZSZ5: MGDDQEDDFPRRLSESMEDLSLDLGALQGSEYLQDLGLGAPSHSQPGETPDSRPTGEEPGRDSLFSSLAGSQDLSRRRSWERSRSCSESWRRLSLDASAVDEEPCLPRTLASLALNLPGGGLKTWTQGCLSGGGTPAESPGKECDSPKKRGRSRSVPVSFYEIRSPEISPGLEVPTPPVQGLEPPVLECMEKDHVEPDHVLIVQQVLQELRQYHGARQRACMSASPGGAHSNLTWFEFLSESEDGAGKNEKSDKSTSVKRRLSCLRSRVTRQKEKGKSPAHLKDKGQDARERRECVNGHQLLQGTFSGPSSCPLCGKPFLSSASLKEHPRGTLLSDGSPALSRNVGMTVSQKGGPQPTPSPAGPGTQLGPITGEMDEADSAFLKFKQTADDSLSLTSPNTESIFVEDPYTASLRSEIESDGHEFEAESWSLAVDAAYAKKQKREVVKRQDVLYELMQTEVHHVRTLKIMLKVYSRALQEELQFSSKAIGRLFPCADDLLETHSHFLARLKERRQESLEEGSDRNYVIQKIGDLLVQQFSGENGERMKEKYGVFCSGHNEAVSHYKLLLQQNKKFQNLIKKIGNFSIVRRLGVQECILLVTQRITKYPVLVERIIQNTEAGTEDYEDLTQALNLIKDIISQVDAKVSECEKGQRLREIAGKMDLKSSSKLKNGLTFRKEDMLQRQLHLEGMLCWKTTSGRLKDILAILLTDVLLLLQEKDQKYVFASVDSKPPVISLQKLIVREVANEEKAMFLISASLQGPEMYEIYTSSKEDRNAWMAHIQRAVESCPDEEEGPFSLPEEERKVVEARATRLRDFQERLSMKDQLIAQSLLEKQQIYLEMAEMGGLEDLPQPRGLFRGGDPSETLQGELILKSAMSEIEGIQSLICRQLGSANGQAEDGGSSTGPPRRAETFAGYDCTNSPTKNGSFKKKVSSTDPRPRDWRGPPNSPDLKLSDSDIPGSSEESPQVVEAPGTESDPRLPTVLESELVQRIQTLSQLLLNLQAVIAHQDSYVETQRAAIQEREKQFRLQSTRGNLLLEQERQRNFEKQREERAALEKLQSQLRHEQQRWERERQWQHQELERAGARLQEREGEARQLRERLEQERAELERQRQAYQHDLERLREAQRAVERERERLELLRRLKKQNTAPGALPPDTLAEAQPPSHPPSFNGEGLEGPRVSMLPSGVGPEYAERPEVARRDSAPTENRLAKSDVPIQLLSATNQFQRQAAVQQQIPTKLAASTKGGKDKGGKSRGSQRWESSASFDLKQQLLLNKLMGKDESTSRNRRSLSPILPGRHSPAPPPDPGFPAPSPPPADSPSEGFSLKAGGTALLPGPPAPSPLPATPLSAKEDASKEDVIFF
UniProt Q8N8R7: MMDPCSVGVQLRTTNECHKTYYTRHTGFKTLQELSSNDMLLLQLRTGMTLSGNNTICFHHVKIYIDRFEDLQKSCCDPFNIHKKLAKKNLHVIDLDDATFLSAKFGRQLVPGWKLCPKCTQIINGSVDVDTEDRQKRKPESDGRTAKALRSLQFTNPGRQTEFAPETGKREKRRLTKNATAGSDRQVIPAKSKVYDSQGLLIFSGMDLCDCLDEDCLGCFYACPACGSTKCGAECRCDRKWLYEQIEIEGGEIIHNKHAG
UniProt Q8IW19: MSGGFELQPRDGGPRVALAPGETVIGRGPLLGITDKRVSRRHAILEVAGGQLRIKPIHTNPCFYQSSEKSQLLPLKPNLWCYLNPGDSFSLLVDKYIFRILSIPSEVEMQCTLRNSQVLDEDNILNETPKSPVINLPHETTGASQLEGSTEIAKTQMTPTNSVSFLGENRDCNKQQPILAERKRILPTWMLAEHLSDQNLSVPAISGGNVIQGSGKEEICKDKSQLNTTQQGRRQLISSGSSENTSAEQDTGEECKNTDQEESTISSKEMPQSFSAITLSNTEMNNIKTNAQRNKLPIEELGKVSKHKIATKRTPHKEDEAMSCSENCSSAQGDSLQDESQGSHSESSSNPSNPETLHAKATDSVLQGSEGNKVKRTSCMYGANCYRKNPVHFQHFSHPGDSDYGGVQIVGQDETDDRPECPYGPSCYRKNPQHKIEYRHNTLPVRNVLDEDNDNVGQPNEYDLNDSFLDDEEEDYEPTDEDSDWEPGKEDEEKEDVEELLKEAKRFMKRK
UniProt Q6NXE6: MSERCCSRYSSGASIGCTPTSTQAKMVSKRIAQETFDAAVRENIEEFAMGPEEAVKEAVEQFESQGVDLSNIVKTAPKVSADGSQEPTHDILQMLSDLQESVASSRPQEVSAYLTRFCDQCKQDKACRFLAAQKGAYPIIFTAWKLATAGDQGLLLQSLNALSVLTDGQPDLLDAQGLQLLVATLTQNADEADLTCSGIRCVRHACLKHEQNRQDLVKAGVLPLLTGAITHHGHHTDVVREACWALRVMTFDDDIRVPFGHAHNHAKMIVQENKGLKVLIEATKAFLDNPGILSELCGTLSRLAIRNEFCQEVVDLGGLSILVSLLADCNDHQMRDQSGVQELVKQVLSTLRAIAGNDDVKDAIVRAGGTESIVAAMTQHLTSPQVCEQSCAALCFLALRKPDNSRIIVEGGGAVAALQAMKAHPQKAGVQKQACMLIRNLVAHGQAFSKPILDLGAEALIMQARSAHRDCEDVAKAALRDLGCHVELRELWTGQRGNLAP
UniProt Q9NZN5: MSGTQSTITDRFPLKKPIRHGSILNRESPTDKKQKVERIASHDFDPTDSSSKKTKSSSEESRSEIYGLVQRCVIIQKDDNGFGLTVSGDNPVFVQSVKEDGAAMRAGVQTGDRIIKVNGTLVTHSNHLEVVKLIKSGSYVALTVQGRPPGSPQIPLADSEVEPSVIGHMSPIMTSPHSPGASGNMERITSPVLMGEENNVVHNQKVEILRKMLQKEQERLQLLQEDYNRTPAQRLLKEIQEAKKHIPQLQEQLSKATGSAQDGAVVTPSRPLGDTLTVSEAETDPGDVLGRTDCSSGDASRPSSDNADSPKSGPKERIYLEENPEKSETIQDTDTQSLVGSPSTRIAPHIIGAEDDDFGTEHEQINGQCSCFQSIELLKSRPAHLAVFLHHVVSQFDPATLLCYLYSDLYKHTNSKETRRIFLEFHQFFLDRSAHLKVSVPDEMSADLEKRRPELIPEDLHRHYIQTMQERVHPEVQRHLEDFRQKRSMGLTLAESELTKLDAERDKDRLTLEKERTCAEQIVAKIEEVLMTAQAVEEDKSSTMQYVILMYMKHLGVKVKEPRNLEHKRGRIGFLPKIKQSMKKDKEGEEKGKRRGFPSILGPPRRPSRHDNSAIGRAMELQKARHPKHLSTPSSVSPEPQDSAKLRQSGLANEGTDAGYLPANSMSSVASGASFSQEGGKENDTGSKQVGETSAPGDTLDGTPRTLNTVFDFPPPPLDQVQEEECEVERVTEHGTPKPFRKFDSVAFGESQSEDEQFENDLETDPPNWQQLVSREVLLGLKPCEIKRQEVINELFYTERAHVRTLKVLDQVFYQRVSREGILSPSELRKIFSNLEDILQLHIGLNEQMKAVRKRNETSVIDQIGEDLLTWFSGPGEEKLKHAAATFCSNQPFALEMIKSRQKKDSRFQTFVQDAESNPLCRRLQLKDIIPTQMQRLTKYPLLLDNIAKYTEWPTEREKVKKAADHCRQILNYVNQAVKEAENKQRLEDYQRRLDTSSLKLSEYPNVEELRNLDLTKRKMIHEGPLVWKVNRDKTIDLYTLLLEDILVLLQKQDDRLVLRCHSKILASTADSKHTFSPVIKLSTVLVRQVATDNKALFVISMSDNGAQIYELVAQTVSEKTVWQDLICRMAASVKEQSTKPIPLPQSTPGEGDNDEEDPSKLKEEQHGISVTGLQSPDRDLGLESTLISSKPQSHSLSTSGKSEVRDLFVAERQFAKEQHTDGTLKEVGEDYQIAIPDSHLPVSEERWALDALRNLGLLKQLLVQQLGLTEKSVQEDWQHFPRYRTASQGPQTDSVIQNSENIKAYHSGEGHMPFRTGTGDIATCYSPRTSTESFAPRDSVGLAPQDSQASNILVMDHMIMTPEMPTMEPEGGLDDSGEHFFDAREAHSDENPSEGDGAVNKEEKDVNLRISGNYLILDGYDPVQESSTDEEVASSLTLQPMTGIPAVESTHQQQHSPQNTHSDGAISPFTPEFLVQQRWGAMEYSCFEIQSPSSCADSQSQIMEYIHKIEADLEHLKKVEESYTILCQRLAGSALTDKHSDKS
UniProt P40616: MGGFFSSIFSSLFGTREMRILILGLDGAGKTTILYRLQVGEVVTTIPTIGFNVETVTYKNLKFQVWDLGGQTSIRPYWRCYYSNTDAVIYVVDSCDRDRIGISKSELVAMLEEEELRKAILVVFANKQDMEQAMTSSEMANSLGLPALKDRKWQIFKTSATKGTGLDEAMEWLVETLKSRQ

Common to all, as to assay: log2 fold change, soluble protein after heating vs DMSO (PISA); higher = thermal stabilisation; K562 lysate, 10 uM; active = over 0.2 and 3.5 SD of the protein, either way, in both replicates (recomputed)
Compound in experiment [1]: NCC(=O)Nc1ccc(-n2nc(C(F)(F)F)cc2-c2ccc3c(ccc4ccccc43)c2)cc1
A digest of the protocol: (§1)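 Dounce homogenisation of K562 pellets in PBS pH 7.4 with 1 mM MgCl2 produced a crude extract, used at 1 mg/mL protein. Exposure to 10 μM compound lasted 30 min, and aliquots were then heated for 3 min across 48°C-58°C, pooled and brought to 0.5% NP-40 at 4°C. The supernatant after 21,000xg for 90 min was quantified by TMTpro 16plex LC-MS/MS with channel sums equalised. Duplicate values are given as log-two fold change in thermal stability relative to solvent controls.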

Compound in the next experiment: O=C(CCCCCCC(=O)Nc1ccccc1)NO [vorinostat]
A digest of the protocol: as §1

Compound in a further experiment: O=C(O)c1ccc2c(c1)nc(Nc1cccc(Cl)c1)c1ccncc12 [silmitasertib]
In a few lines: as §1

Compound in experiment [2]: O=C1NC(=O)C(c2cnc3ccccn23)=C1c1cn2c3c(cc(F)cc13)CN(C(=O)N1CCCCC1)CC2
In a few lines:
as §1

Compound in another experiment: c1cn2cc(-c3ccc4cn[nH]c4c3)nc(Nc3ccc(N4CCOCC4)cc3)c2n1 [entospletinib]
In a few lines:
as §1

In the case of ARID4A (UniProt P29374), the log2 fold change in experiment [1] was inactive: -0.024; in the experiment with vorinostat it was inactive: -0.049; in the experiment with silmitasertib it was inactive: -0.032.
With ARHGAP12 isoform 3 (UniProt Q8IWW6), the log2 fold change in experiment [1] was inactive: -0.163.
For the target AP5M1 (UniProt Q9H0R1), the log2 fold change in experiment [1] was inactive: 0.058; with vorinostat it was inactive: -0.031; with silmitasertib, inactive: 0.117; in experiment [2] it was inactive: 0.01; in the experiment with entospletinib, inactive: -0.016.
On to ARHGAP18 (UniProt Q8N392), for which the log2 fold change is inactive: -0.002 in experiment [1]; inactive: -0.103 with vorinostat; inactive: -0.007 with silmitasertib; inactive: -0.007 in experiment [2]; inactive: 0.027 in the experiment with entospletinib.
Take ARSA (UniProt P15289): the log2 fold change in experiment [1] was inactive: -0.008; with vorinostat, inactive: 0.077; in the experiment with silmitasertib it was inactive: 0.022; in experiment [2], inactive: -0.03; with entospletinib, inactive: -0.084.
In the case of ARMT1 (UniProt Q9H993), the log2 fold change is inactive: 0.013 in experiment [1]; inactive: -0.049 with vorinostat; inactive: -0.019 in the experiment with silmitasertib; inactive: -0.035 in experiment [2]; inactive: 0.051 with entospletinib.
ARL6IP4 isoform 4 (UniProt Q66PJ3): the log2 fold change in experiment [1] is inactive: 0.163.
Regarding ARL8A (UniProt Q96BM9), the log2 fold change was inactive: 0.192 in experiment [1]; inactive: 0.234 with vorinostat; inactive: -0.024 in the experiment with silmitasertib; inactive: -0.03 in experiment [2]; inactive: 0.002 with entospletinib.
As to ARHGAP25 isoform 4 (UniProt P42331), the log2 fold change in experiment [1] was inactive: 0.027; with vorinostat, active: -0.377; in the experiment with silmitasertib, inactive: 0.011; in experiment [2], inactive: -0.038; with entospletinib, inactive: 0.009.
On the same counts, the results for ARL3 (UniProt P36405) are inactive: -0.009, inactive: 0.067, inactive: -0.032, inactive: -0.033 and inactive: 0.013.
ARHGDIB (UniProt P52566): the log2 fold change in experiment [1] is inactive: -0.016; with vorinostat, inactive: 0.096; with silmitasertib it was inactive: 0.002; in experiment [2], inactive: -0.025; with entospletinib, inactive: 0.
Turning to ARL15 (UniProt Q9NXU5), the log2 fold change in experiment [1] is inactive: 0.007; with vorinostat, inactive: -0.109; with silmitasertib, inactive: 0.016; in experiment [2], inactive: -0.029; with entospletinib, inactive: 0.014.
As for ARHGEF18 (UniProt Q6ZSZ5), the log2 fold change in experiment [1] was inactive: 0.034; with vorinostat it was inactive: -0.078; in the experiment with silmitasertib, inactive: -0.012; in experiment [2], inactive: -0.061; in the experiment with entospletinib, inactive: 0.046.
Regarding ARL14EP (UniProt Q8N8R7), the log2 fold change in experiment [1] was inactive: 0.075; with vorinostat it was inactive: -0.016; in the experiment with silmitasertib, inactive: 0.014; in experiment [2], inactive: -0.099.
Consider ASAP1 isoform 2 (UniProt Q9ULH1), for which the log2 fold change in experiment [1] was inactive: 0.037; in the experiment with vorinostat it was inactive: -0.055; in the experiment with silmitasertib it was inactive: 0.01; in experiment [2], inactive: -0.021; with entospletinib, inactive: -0.017.
Take ARPP19 (UniProt H3BMD8): the log2 fold change in experiment [1] was inactive: 0.038; with vorinostat, inactive: 0.135; with silmitasertib, inactive: -0.001; in experiment [2] it was inactive: 0.025; with entospletinib it was inactive: -0.003.
On the same counts, the results for APOBEC3G (UniProt Q9HC16) are inactive: -0.045, inactive: 0.091, inactive: -0.035, inactive: 0.014 and inactive: 0.008.
On to APLF (UniProt Q8IW19), for which the log2 fold change in experiment [1] is inactive: -0.081; with vorinostat, inactive: -0.118; with silmitasertib, inactive: -0.037; in experiment [2], inactive: -0.006; in the experiment with entospletinib, inactive: -0.036.
Regarding ARL13B (UniProt Q3SXY8), the log2 fold change is inactive: 0.01 in experiment [1], inactive: -0.186 with vorinostat, inactive: -0.024 in the experiment with silmitasertib and inactive: -0.064 in experiment [2].
For the target ARMC6 (UniProt Q6NXE6), the log2 fold change in experiment [1] is inactive: -0.011; in the experiment with vorinostat, active: -0.422; in the experiment with silmitasertib, inactive: 0.02; in experiment [2], inactive: -0.006; with entospletinib it was inactive: 0.011.
Regarding ARMC10 (UniProt Q8N2F6), the log2 fold change in experiment [1] was inactive: 0.015; with vorinostat, inactive: -0.041; with silmitasertib, inactive: -0.029; in experiment [2], inactive: 0.021; in the experiment with entospletinib it was inactive: 0.024.
Turning to ARHGEF12 (UniProt Q9NZN5), the log2 fold change is inactive: 0.003 in experiment [1]; inactive: -0.137 with vorinostat; inactive: 0.01 in the experiment with silmitasertib; inactive: -0.055 in experiment [2]; inactive: -0.021 in the experiment with entospletinib.
As for APC (UniProt P25054), the log2 fold change in experiment [1] was inactive: -0.099; in the experiment with vorinostat, inactive: -0.025; with silmitasertib it was inactive: -0.007; in experiment [2] it was inactive: -0.021; in the experiment with entospletinib, inactive: -0.103.
Consider ARL1 (UniProt P40616), for which the log2 fold change in experiment [1] is inactive: 0.017; in the experiment with vorinostat, active: -0.293; with silmitasertib, inactive: -0.048; in experiment [2], inactive: 0.027; in the experiment with entospletinib it was inactive: 0.034.
On to ARHGAP6 (UniProt O43182), for which the log2 fold change in experiment [1] was inactive: 0.058; with vorinostat it was active: -0.346; with silmitasertib, inactive: 0.089; in experiment [2] it was inactive: 0.025; with entospletinib, inactive: 0.004.
In the case of ARPC1B (UniProt O15143), the log2 fold change is inactive: -0.01 in experiment [1]; inactive: 0.08 with vorinostat; inactive: 0.001 in the experiment with silmitasertib; inactive: -0.031 in experiment [2]; inactive: 0.011 with entospletinib.

These data come from the supplement of paper PMC10849652.
